# Source: patent US5629011A, “Composition for nasal administration” (priority 1992, dated 1997)
# Assays:
# [1] = after i.v. or nasal morphine-6-glucuronide; limit of detection 1 ng/ml
# Experimental: Biomed. Appl. 230, 427. […] The limit of quantification of the method is 1 ng/ml for a 0.5 ml plasma sample and the assay is linear over the range of 1 to 1200 ng/ml drug concentration.
# [2] = cited from earlier work
structure (smiles),measurement,setting,value
CN1CC[C@]23c4c5ccc(O)c4O[C@H]2[C@@H](O)C=C[C@H]3[C@H]1C5 [morphine],morphine in plasma samples,[1],No morphine was detected
same,more typical therapeutic levels in plasma,[2]; more typically,20 to 100 ng/mL
same,usual therapeutic levels in plasma,[2]; usual,1 to 500 ng/mL
